One sequence from article PMC10056566 can be followed below.

Sequences of proteins named here, by UniProt entry; tags and fusion partners are left off. Residues count along the entry.
UniProt Q9NZQ7, 19-290: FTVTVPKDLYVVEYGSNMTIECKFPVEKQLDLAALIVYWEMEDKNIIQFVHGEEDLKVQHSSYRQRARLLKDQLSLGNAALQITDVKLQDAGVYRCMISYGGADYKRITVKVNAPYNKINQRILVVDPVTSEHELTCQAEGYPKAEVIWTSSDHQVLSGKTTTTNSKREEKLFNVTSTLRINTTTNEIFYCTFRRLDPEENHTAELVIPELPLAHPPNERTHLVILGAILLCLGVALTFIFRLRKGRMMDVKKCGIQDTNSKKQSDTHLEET

The exact form of at least one protein or probe is not confirmed. At least one result comes from cells or an extract, where the contact may be indirect.

This series deals with PD-L1 on MDA-MB-231 cells (UniProt Q9NZQ7). Briefly: fluorescence microscopy of cells. Conditions: aptamer on coumarin-6 albumin nanoparticle, 5' thiol, T10 spacer, conjugated to BSA by Sulfo-SMCC, multivalent nanoparticle, protein on the cell surface, single-stranded DNA.

For the sequence “TTTTTTTTTTACGGGCCACATCAACTCATTGATAGACAATGCGTCCACTGCCCGT [PD-L1 aptamer on albumin nanoparticle (PDL1-NP-cou6)]”, the binding result was “binds”.
